Laboratory results from paper PMC7819943, “Rice protein-binding microarrays: a tool to detect cis-acting elements near promoter regions in rice”.
The other results are listed elsewhere or left out.

The chains behind the UniProt entries cited, without tags or fusion partners.
UniProt Q0JBA9, entry or part of it: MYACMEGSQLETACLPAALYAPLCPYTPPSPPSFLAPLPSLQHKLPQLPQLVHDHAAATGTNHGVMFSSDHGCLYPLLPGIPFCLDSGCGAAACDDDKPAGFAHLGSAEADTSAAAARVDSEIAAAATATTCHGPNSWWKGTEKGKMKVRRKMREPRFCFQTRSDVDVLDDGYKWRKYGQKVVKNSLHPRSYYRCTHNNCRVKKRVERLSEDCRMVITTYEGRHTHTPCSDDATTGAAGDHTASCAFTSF

Each sequence was assayed against OsWRKY34 (Oryza sativa, UniProt Q0JBA9 1-250) (assay: protein-binding microarray (RPBM); PBS, 2% BSA, 51.3 ng/ul salmon testes DNA, 50 uM zinc acetate, 200 nM TF, 25 C, 1 h; high values mean tight binding). Conditions: protein: recombinant; tags: N-terminal polyhistidine and DsRed monomer fusion (pET32a); label: CyDye5-dUTP incorporated in the synthesized complementary strand; 3' TTTTT single-stranded linker to array surface; dsDNA, one strand shown.
Summary of the method: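 Binding signal here means per-feature fluorescence intensity in arbitrary units. The values were read on an Axon 4000B scanner after a custom Agilent array, double-stranded by primer extension with Cy5-dUTP, was incubated with 200 nM protein at 25 °C for 1 h in PBS with 2% BSA, salmon testes DNA and 50 µM zinc acetate, then washed. The proteins were transcription factors with an N-terminal polyhistidine tag and DsRed, expressed in E. coli BL21-CodonPlus and purified on Ni–NTA.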

| Sequence | binding signal |
| --- | --- |
| AGGATTCTTTTAAACGTATTTTTGAGGGAGGGGAACAGTCCGGAGTCACCTAGTGCAG | 8830 fluorescence intensity (a.u.) |
| GATCTTATTGTGGGCGGCTGGCTGACTGTTGCTGTTGTATCGGAGTCACCTAGTGCAG | 9690 fluorescence intensity (a.u.) |
| CATACATTGCCTCGTTTTTCTCTATAGACTATCTCTAAGTCGGAGTCACCTAGTGCAG | 8460 fluorescence intensity (a.u.) |
| ATCTTGCATCATTCATGTCTTGTCCCCTTAAACTTTTTTCCGGAGTCACCTAGTGCAG | 10100 fluorescence intensity (a.u.) |
| GCCATCTTGTTCTTGTCTTTGATTCTGTTCTTTGAGTTCACGGAGTCACCTAGTGCAG | 15300 fluorescence intensity (a.u.) |
| CCGCTCCAAATCCAAATCTCACCTTGAATTCTTCTCCTTCCGGAGTCACCTAGTGCAG | 8320 fluorescence intensity (a.u.) |
| GTCCTACGCATGGCCACTCTGCTCATATTTGTTTGGCTCCCGGAGTCACCTAGTGCAG | 9840 fluorescence intensity (a.u.) |
| CACACCCTACACGCACCCCATAATATGGGCCTTACAATCTCGGAGTCACCTAGTGCAG | 8600 fluorescence intensity (a.u.) |
| TCAGTTTTGTTCTAGCCACACTTTGTCACCATTTGCCAATCGGAGTCACCTAGTGCAG | 10900 fluorescence intensity (a.u.) |
| AAATCATCCGGATTAATCTGTACCGTCCATCCGCGCGCAACGGAGTCACCTAGTGCAG | 11300 fluorescence intensity (a.u.) |
| TGTTACCAAACGGATTTTGCCTAATTTCATCCCGCGACTACGGAGTCACCTAGTGCAG | 8770 fluorescence intensity (a.u.) |
| TTCTCTATCATAATGGCAGCACTACCATTACAAGCACTGACGGAGTCACCTAGTGCAG | 8120 fluorescence intensity (a.u.) |
| ATATATATATATATATATATGGCAACGTAATCCTTCTGTTCGGAGTCACCTAGTGCAG | 9540 fluorescence intensity (a.u.) |
| GCCTCGAGCGCTATCCCCGCCACCGCTTGCCGCGTTATTCCGGAGTCACCTAGTGCAG | 14700 fluorescence intensity (a.u.) |
| ACTTTTACCTGGGTTGCCAGTGTTATATATGCTTTGTTGACGGAGTCACCTAGTGCAG | 10800 fluorescence intensity (a.u.) |
| GCATTACCAGATCACGCCGGCCAAGCCAGCCACGGTCACCCGGAGTCACCTAGTGCAG | 9220 fluorescence intensity (a.u.) |
| ATGGAAGTATGGGTTATTCGTGCCATGCTGTTCTTTCGAACGGAGTCACCTAGTGCAG | 8390 fluorescence intensity (a.u.) |
| GCCGTCTTTGCTTGATAGTCTTCGCCATGGGGACTTTGTCCGGAGTCACCTAGTGCAG | 8210 fluorescence intensity (a.u.) |
| CTTTATCGATGGATGCTTTGGGCTCCACCATTATTTTTTTCGGAGTCACCTAGTGCAG | 9140 fluorescence intensity (a.u.) |
| GATGCTCTTTCTATATGGTAATATATTCCACTCTAATCTGCGGAGTCACCTAGTGCAG | 10300 fluorescence intensity (a.u.) |
| AGGCCGCGCTCCTCACCCGCCACGCGCTCCACTCCAACTGCGGAGTCACCTAGTGCAG | 9340 fluorescence intensity (a.u.) |

| Sequence | binding signal |
| --- | --- |
| ACACGTGCCTCGTCCCACCTGTCCGCGTCACCCGTCTCTCCGGAGTCACCTAGTGCAG | 15400 fluorescence intensity (a.u.) |
| TATTCACGTTCAACGTTTGATCGTTCGTCTTATTTGAAATCGGAGTCACCTAGTGCAG | 10100 fluorescence intensity (a.u.) |
| TCCTCTTCTTCTTCTTCTTCTTCTCGTGGGTGCAAGAAGCCGGAGTCACCTAGTGCAG | 8380 fluorescence intensity (a.u.) |
| CACGGCCTCCACTTTCTGCTTCGCCTCATCCAGTCCGCTTCGGAGTCACCTAGTGCAG | 11000 fluorescence intensity (a.u.) |
| TTCAGGGACATGTTGTATCTGGTTTTGGGGTTCAAGGATGCGGAGTCACCTAGTGCAG | 9220 fluorescence intensity (a.u.) |
| GTGCTTTTTCTTGCTTTTTCTCGTGATGTTGGAGTGGTGTCGGAGTCACCTAGTGCAG | 13000 fluorescence intensity (a.u.) |
| GCTTATTTTGGTGGTACAGATGCAGTTTCATTTATTAAAACGGAGTCACCTAGTGCAG | 12900 fluorescence intensity (a.u.) |
| CTGGCCGTCATCTTCTTCTTCTCCGATCTCCTCCTCCTCCCGGAGTCACCTAGTGCAG | 9220 fluorescence intensity (a.u.) |
| GCTCACTTCCCTGTGGCTATGTGTTGCTGACTGTAAATATCGGAGTCACCTAGTGCAG | 11100 fluorescence intensity (a.u.) |
| ATCATCACTCCATTGCCGCTGTATTTGTTGTCATCGTTTTCGGAGTCACCTAGTGCAG | 11200 fluorescence intensity (a.u.) |
| GACTTACCTAACATGCATTTGATTTCTCCTTAATTCATTACGGAGTCACCTAGTGCAG | 9210 fluorescence intensity (a.u.) |
| ATAGTAAAATTATTTTTTGGTCATGTTCTTTTTATAGGGGCGGAGTCACCTAGTGCAG | 12600 fluorescence intensity (a.u.) |
| GGATTTGGATTTGCTTGGTAACCCAGCTGAACTCTCTGAACGGAGTCACCTAGTGCAG | 8390 fluorescence intensity (a.u.) |
| TCAGGATCCTCCTTTAGTTTTCTATCATCATCCTCTATTCCGGAGTCACCTAGTGCAG | 9010 fluorescence intensity (a.u.) |
| CTCTCACCATGCAAGATTTCCTTAGATTTGAGTTGAGTCACGGAGTCACCTAGTGCAG | 9150 fluorescence intensity (a.u.) |
| GCCGTGGTGGTGTGGGGATCGTGTTGTGGCGGCGGATTGGCGGAGTCACCTAGTGCAG | 8690 fluorescence intensity (a.u.) |
| TATTCTCGATCCATTTATCTCCTATCTGTTACTTTGGTATCGGAGTCACCTAGTGCAG | 10700 fluorescence intensity (a.u.) |
| CTCCTCGTCTCTCGCCTTCGCCACCTTCGAATCGAAACTACGGAGTCACCTAGTGCAG | 10500 fluorescence intensity (a.u.) |
| GGTTATTTATTTTTATTGGTTTCCCCATTACTGTTGACAGCGGAGTCACCTAGTGCAG | 8360 fluorescence intensity (a.u.) |
| CTCTCTTTACATTCTCCACATGTAGTACTAGCTAGCTAACCGGAGTCACCTAGTGCAG | 8380 fluorescence intensity (a.u.) |
| ACTCTTCCTGCCCGCCGCCGCCGCCGCGACCTCGCCGTCGCGGAGTCACCTAGTGCAG | 9840 fluorescence intensity (a.u.) |

Some of the entries so far, with tabs.
Sequence	binding signal
CTCTCACCATGCAAGATTTCCTTAGATTTGAGTTGAGTCACGGAGTCACCTAGTGCAG	9150 fluorescence intensity (a.u.)
GCCGTGGTGGTGTGGGGATCGTGTTGTGGCGGCGGATTGGCGGAGTCACCTAGTGCAG	8690 fluorescence intensity (a.u.)
